This assay has as its target T1, His-tagged human ERCC1 (human) (UniProt P07992).
T1 sequence: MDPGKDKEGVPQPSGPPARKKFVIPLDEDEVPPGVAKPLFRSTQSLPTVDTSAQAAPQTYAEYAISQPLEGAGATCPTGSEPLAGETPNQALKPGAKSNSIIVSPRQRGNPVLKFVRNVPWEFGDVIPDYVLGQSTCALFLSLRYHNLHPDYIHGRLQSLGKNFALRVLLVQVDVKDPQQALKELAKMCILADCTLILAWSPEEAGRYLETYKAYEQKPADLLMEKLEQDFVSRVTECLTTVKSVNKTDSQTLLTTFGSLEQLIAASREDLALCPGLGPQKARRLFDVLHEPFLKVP
The experiment in a line: SEC; Superdex 200; FLAG-XPF-ERCC1 heterodimer, His-BTB and both combined, excess of BTB domain; fractions blotted with α-XPF and α-His; both purified. On the technique in general: In gel filtration, larger molecules generally elute earlier.

These are yes or no findings as the source states them, for the method shown. Where a sequence is shown, tags or fusion partners need not be part of it.

In the case of “His-tagged BTB domain of Xenopus laevis SLX4 (domain or fragment)”, the binding result is given as “no binding”.
